This assay addresses PINK1-GFP (PTEN-induced kinase 1 with a C-terminal GFP tag) (human) (UniProt Q9BXM7). Briefly: co-IP.

Protein sequences, listed by entry. Tags and fused reporters are not part of them. Residues count along the entry.
UniProt Q9BXM7, residues 78-581: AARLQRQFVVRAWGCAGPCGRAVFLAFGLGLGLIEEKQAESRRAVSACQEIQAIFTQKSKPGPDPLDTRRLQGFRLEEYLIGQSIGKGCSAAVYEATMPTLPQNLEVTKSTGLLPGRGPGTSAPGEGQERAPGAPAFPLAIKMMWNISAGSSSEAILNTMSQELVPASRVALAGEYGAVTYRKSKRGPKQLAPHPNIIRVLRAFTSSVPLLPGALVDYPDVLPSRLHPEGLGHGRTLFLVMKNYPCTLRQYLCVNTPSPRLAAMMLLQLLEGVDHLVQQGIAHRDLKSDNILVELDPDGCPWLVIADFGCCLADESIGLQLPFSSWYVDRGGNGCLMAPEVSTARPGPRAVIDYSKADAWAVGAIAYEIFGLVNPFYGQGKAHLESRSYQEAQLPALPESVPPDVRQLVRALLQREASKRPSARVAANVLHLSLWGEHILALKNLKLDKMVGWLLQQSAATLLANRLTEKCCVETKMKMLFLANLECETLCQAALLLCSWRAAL
UniProt Q969V5: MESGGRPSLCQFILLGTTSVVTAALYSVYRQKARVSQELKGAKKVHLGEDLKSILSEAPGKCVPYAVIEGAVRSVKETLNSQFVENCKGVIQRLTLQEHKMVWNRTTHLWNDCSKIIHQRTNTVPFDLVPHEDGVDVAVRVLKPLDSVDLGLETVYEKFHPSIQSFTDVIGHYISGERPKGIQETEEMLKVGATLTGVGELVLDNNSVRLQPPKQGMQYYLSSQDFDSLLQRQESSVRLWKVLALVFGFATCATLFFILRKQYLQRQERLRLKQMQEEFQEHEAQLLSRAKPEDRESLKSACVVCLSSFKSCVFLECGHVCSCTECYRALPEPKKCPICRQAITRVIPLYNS

Results are given in words; binding and its absence hold for the method and conditions named. Binding seen in cells or lysates may run through a third protein. Some binding calls cover weakened binding; strength is not graded here.

For “mitochondrial-anchored protein ligase (MAPL/MUL1) (from UniProt Q969V5 1-352)”, the binding result is on record as “binds”.
